{
  "sequences": {"note": "Chains of the proteins cited; added tags and fusions are not shown.", "UniProt Q92918, whole entry": "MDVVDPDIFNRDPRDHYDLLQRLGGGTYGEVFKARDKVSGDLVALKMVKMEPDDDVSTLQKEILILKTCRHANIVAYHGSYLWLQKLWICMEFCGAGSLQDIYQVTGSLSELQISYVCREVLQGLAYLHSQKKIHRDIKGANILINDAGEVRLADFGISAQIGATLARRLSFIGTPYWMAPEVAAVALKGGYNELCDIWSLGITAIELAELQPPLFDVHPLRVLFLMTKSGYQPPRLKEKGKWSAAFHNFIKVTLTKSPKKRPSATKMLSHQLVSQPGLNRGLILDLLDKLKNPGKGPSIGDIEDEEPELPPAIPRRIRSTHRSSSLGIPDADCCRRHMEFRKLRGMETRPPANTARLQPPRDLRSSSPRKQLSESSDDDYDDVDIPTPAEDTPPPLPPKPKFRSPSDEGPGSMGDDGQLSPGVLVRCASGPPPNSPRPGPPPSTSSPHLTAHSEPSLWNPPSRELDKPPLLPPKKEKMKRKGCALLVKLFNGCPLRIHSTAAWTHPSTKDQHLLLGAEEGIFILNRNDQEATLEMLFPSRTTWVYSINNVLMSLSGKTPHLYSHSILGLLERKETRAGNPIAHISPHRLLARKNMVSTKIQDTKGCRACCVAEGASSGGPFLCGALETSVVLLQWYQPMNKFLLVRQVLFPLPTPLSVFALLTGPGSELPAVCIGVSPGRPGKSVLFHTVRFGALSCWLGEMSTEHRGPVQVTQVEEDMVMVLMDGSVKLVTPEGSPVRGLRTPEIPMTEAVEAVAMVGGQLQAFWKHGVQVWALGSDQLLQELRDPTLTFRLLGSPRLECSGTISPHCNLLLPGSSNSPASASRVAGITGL"},
  "source": "patent US11142525B2",
  "about": "(Pfizer Inc., priority 2018, dated 2021)",
  "target": "human full-length recombinant HPK1 (Homo sapiens (Human), UniProt Q92918)",
  "assay": "HPK1 biochemical enzyme assay, microfluidic mobility shift assay (MSA)",
  "details": "read-out: HPK1 Enzyme Assay_Ki",
  "protocol": "HPK1 enzyme inhibition was measured using a microfluidic mobility shift assay (MSA). […] The reactions were conducted for 60 min at 37° C., stopped by the addition of 50 μL of 0.015 M EDTA, pH 8, and the extent of reactions (˜15-20% conversion with no inhibitor) was determined after electrophoretic separation of the fluorescently labeled peptide substrate and phosphorylated product on an LabChip EZ Reader II (PerkinElmer, Inc., Waltham, Mass.). […]",
  "note": "For at least one compound, name, drawing or mass did not settle the structure.",
  "data": [
    {"smiles": "CCCn1c(C)nnc1-c1cccc(N2Cc3c(cc(N4CCC[C@@H]4C)nc3CNC)C2=O)n1", "note": "[Example 134, 4-[(methylamino)methyl]-2-[6-(5-methyl-4-propyl-4H-1,2,4-triazol-3-yl)pyridin-2-yl]-6-[(2S)-2-methylpyrrolidin-1-yl]-2,3-dihydro-1H-pyrrolo[3,4-c]pyridin-1-one]", "values": [
      {"measurement": "Ki", "value": 0.47, "unit": "nM"}
    ]}
  ]
}
